Assay [1] concerns the target Carboxy-terminus of Hsc70-interacting protein (CHIP), His-tagged, K30A mutant (human) (UniProt Q9UNE7). The assay is described as follows: ELISA; His-CHIP wt or K30A (100 ng) coated on microtitre wells; titration of GST-IRF-1 in the mobile phase; 25 mM HEPES pH 7.5, 50 mM KCl, 10 mM MgCl2, 5% glycerol, 0.1% Tween-20, 1 h at room temperature; both purified. (ELISA stands for enzyme-linked immunosorbent assay.)

Chains of the proteins cited; added tags and fusions are not shown. Lines headed by an entry give the natural chain unless they say otherwise; changes in a name come on top.
UniProt Q9UNE7: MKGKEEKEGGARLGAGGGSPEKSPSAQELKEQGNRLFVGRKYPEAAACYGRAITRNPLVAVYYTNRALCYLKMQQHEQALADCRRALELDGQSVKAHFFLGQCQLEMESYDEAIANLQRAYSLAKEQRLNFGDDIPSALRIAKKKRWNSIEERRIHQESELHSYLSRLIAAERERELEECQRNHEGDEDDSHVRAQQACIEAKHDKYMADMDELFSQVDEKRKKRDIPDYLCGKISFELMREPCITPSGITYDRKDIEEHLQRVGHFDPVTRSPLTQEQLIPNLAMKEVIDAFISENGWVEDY

Assay [2] deals with Carboxy-terminus of Hsc70-interacting protein (CHIP), His-tagged, wild type (human) (UniProt Q9UNE7). The assay is described as above.
Assay [3] has the same target. Briefly: ELISA; His-CHIP wt or K30A coated on microtitre wells; titration of biotin-tagged Hsp70 wt peptide in the mobile phase; detected using streptavidin-HRP; both purified.

No constants are given. Whether binding was seen depends on the method and setting. Some binding calls cover weakened binding; strength is not graded here. For part of these data: Tags and fused reporters may be left off the sequences shown.

B1: GST-IRF-1 (pDEST-15-codon optimized IRF-1) (protein, UniProt P10914 1-325)
chain: MPITRMRMRPWLEMQINSNQIPGLIWINKEEMIFQIPWKHAAKHGWDINKDACLFRSWAIHTGRYKAGEKEPDPKTWKANFRCAMNSLPDIEEVKDQSRNKGSSAVRVYRMLPPLTKNQRKERKSKSSRDAKSKAKRKSCGDSSPDTFSDGLSSSTLPDDHSSYTVPGYMQDLEVEQALTPALSPCAVSSTLPDWHIPVEVVPDSTSDLYNFQVSPMPSTSEATTDEDEEGKLPEDIMKLLEQSEWQPTNVDGKGYLLNEPGVQPTSVYGDFSCKEEPEIDSPGGDIGLSLQRVFTDLKNMDATWLDSLLTPVRLPSIQAIPCAP
As to B1, the binding result in assay [1] and in assay [2] was “binds” in each case. On to SGSGGPTIEEVD (biotin at the N terminus) [Hsp70 C-terminal peptide GPTIEEVD (residues 634-641), biotin-SGSG at the N terminus], for which the binding entry in assay [3] is given as “binds”.

The values above are taken from paper PMC4638040.
